Source: PubChem BioAssay AID1671190 (National Center for Advancing Translational Sciences (NCATS), 2021)
Out of some 580,000 compounds screened, about 6,100 (1.1%) were called active. Not shown: some 15% with an inconclusive outcome. Calls follow the shape of the dose curve; as a rule, active = well fitted inhibition curve with a large enough effect; inconclusive = small, poorly fitted or top-dose-only effect, or another doubt; inactive = no such curve, though single readings can be large or run the other way. The entries are a selection whose mix differs from that of the whole data set. Where no call is shown, the source filed none.

The chains behind the UniProt entries cited, without tags or fusion partners.
UniProt P18054, whole entry, looked up: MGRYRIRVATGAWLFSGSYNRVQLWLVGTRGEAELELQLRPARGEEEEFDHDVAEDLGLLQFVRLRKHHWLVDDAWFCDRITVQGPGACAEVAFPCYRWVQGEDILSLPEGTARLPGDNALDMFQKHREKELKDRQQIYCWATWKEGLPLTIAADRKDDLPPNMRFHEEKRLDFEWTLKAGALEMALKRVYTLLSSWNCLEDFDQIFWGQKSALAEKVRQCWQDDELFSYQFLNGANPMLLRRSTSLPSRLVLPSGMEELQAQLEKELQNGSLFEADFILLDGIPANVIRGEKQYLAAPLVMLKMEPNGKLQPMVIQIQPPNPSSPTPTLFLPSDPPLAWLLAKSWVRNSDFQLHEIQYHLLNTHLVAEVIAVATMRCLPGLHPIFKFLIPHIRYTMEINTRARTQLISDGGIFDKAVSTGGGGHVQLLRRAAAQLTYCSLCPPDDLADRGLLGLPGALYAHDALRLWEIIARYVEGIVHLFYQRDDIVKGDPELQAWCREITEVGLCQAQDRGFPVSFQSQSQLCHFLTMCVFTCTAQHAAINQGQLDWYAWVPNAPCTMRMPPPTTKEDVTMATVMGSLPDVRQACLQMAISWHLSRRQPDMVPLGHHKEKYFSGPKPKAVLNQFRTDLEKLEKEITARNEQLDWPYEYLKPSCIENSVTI

biological target: Polyunsaturated fatty acid lipoxygenase ALOX12 (Homo sapiens) (UniProt P18054); experiment: Primary qHTS assay for inhibitors of human arachidonate 12S-lipoxygenase (ALOX12): Round 2; conditions: purified 12hLO, xylenol orange hydroperoxide absorbance; activity change, negative = inhibition: at 0.00344 µM (top of the series) unless noted
In short: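 Hydroperoxide product was detected by ferrous iron/xylenol orange as the 573 to 405 nm absorbance ratio. Arachidonic acid at 40 uM (final) was turned over for 30 min at room temperature by 150 nM human 12hLO, pH 7.0 Hepes buffer, after 15 min compound preincubation.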
% is scaled to controls: 0 for no effect and ±100 for the full control effect; potency is read from the fitted curve at half-maximal effect.

First: CCN(CC)CCNC(=O)c1c(C)[nH]c(/C=C2\C(=O)Nc3ccc(F)cc32)c1C
Second: CCN(CC)CC(=O)Oc1ccc(NC(C)=O)cc1
The activity change, negative = inhibition of the first is higher: -5.28% for the first, -21% for the second.

Compared with `Oc1c(Cl)cc(Cl)c(Cl)c1Cc1c(O)c(Cl)cc(Cl)c1Cl`, `CC(C(=O)O)c1ccc2c(c1)[nH]c1ccc(Cl)cc12` (centres undefined) is lower in activity change, negative = inhibition: 4.55% for the first, -53.5% for the second.

First: Cc1c(N(C)C)c(=O)n(-c2ccccc2)n1C
Second: CN(C)CCN1C(=O)c2ccccc2N(C)c2ccccc21
The activity change, negative = inhibition of the first is lower: -0.0781% for the first, 17.1% for the second.

Going from `NS(=O)(=O)c1ccc(N2CCCCS2(=O)=O)cc1` to `O=S(=O)(O)c1ccc(O)cc1`, the activity change, negative = inhibition falls from 36.4% to -24%.

First: CCCCc1cc2ccccc2c(OCCN(C)C)n1
Second: CN(C)CCOC(C)(c1ccccc1)c1ccccn1 (centres undefined)
The activity change, negative = inhibition of the first is lower: -11% for the first, -8.54% for the second.

Compared with `CC(C)c1cc2c(cc1S(=O)(=O)O)[C@@]1(C)CCC[C@@](C)(C(=O)O)[C@@H]1CC2`, `CC(=O)Oc1ccc2c(c1)CC[C@@H]1[C@@H]2CC[C@]2(C)[C@@H](O)CC[C@@H]12` is higher in activity change, negative = inhibition: 15.1% for the first, 49.1% for the second.

Compared with `CN(C)C(=O)C(CCN1CCC(O)(c2ccc(Cl)cc2)CC1)(c1ccccc1)c1ccccc1`, `COC(c1ccccc1)(c1ccccc1)[C@H](Oc1nc(C)cc(C)n1)C(=O)O` is higher in activity change, negative = inhibition: -24.1% for the first, -2.05% for the second.

First: O=C(O)c1ccc(OCCCOc2ccc(C(=O)O)cc2)cc1
Second: Cc1oc(-c2ccccc2)nc1CCC(=O)c1ccc(CC2SC(=O)NC2=O)cc1 (centres undefined)
The activity change, negative = inhibition of the first is higher: 48.4% for the first, 14.2% for the second.

Going from `c1ccc2[nH]ccc2c1` to `Clc1ccc2c(c1)Nc1ccccc1S2`, the activity change, negative = inhibition falls from 18.1% to -16.9%.

Compared with `COc1cc2c(N3CCN(C(=O)Nc4ccc(OC(C)C)cc4)CC3)ncnc2cc1OCCCN1CCCCC1`, `CN1CCN(C2=Nc3cc(F)ccc3Cc3ccccc32)CC1` is lower in activity change, negative = inhibition: -10.3% for the first, -27.6% for the second.

Going from `COc1ccc(CCN(C)CCCN2CCc3cc(OC)c(OC)cc3CC2=O)cc1OC` to `COc1ccc2c(c1OC)C(=O)O[C@@H]2[C@H]1c2c(cc3c(c2OC)OCO3)CCN1C`, the activity change, negative = inhibition falls from 37.1% to -19.3%.

Compared with `Cc1cccc(C)c1NC(=O)c1ccc(N)cc1`, `Nc1nc2ccccc2n1Cc1ccc(F)cc1` is lower in activity change, negative = inhibition: 30.7% for the first, 13.5% for the second.

Compared with `O=C(C1CCCCC1)N1CC(=O)N2CCc3ccccc3C2C1` (centres undefined), `CSc1ccc2c(c1)C(N1CCN(C)CC1)Cc1ccccc1S2` (centres undefined) is higher in activity change, negative = inhibition: -31.5% for the first, -18.9% for the second.

Going from `O=C(O)[C@H](O)c1ccccc1` to `O=C(O)CC(O)C(=O)O` (centres undefined), the activity change, negative = inhibition falls from -4.61% to -21.8%.

First: COc1ccnc2c1CCCCC2S(=O)c1nc2ccccc2[nH]1 (centres undefined)
Second: CCOC(=O)c1c(N)sc2c1CCN(Cc1ccccc1)C2
The activity change, negative = inhibition of the first is higher: 44.6% for the first, -9.08% for the second.

Compared with `CC(=O)N/N=C/c1ccc([N+](=O)[O-])o1`, `CC(C)c1ccc2oc3nc(N)c(C(=O)O)cc3c(=O)c2c1` is higher in activity change, negative = inhibition: 22.4% for the first, 27.3% for the second.

Going from `CN1CCN(CCCN2c3ccccc3Sc3ccc(C(F)(F)F)cc32)CC1` to `CC(=O)c1ccc2c(c1)N(CCCN(C)C)c1ccccc1S2`, the activity change, negative = inhibition falls from 13% to -7.85%.

First: CN=C(NC#N)NCCSCc1csc(N=C(N)N)n1
Second: C[C@@H]1CCN(C(=O)[C@H](CCCN=C(N)N)NS(=O)(=O)c2cccc3c2NC[C@H](C)C3)[C@@H](C(=O)O)C1
The activity change, negative = inhibition of the first is higher: 14.4% for the first, -17.1% for the second.

First: CCCC(=O)OC[C@@H](OC(=O)CCC)[C@@H](OC(=O)CCC)[C@H](Cn1c2nc(=O)[nH]c(=O)c-2nc2cc(C)c(C)cc21)OC(=O)CCC
Second: Cc1c(C)c2c(c(C)c1O)CCC(C)(COc1ccc(CC3SC(=O)NC3=O)cc1)O2 (centres undefined)
The activity change, negative = inhibition of the first is lower: -64.1% for the first, -21.3% for the second.

Compared with `COc1ccc(OC)c(C(O)CNC(=O)CN)c1` (centres undefined), `O=C(O)c1cccnc1Nc1cccc(C(F)(F)F)c1` is higher in activity change, negative = inhibition: -31.5% for the first, -7.46% for the second.

Compared with `C[C@@H](O)[C@H]1C(=O)N2C(C(=O)O)=C(S[C@@H]3CN[C@H](CNS(N)(=O)=O)C3)[C@H](C)[C@H]12`, `C[C@H]1COc2c(C3(N)CC3)c(F)cc3c(=O)c(C(=O)O)cn1c23` is higher in activity change, negative = inhibition: -9.37% for the first, 28.4% for the second.

First: CC(C)Cn1cnc2c1c(=O)n(C)c(=O)n2C
Second: Cc1cc(C(C)(C)C)c(O)c(C)c1CC1=NCCN1
The activity change, negative = inhibition of the first is higher: 31% for the first, -25.3% for the second.

Compared with `CC(C)(C#N)c1cc(Cn2cncn2)cc(C(C)(C)C#N)c1`, `NS(=O)(=O)c1cc(C(=O)O)cc(N2CCCC2)c1Oc1ccccc1` is higher in activity change, negative = inhibition: 7.7% for the first, 33.8% for the second.

Compared with `C=CCNC(N)=S`, `C[C@H]1O[C@H](O[C@H]2[C@H](O)[C@@H](O)[C@@H](O[C@H]3[C@H](O)[C@@H](O)[C@H](O)O[C@@H]3CO)O[C@@H]2CO)[C@H](O)[C@@H](O)[C@@H]1N[C@H]1C=C(CO)[C@@H](O)[C@H](O)[C@H]1O` is lower in activity change, negative = inhibition: -2.66% for the first, -11.1% for the second.

Compared with `CCO[C@@H]1O[C@H](C(COCc2ccccc2)OCc2ccccc2)[C@H](OCc2ccccc2)[C@H]1O` (some centres undefined), `CCCCCCC[N+](CC)(CC)CCCCc1ccc(Cl)cc1` is higher in activity change, negative = inhibition: -16.7% for the first, 0.555% for the second.

`O=c1[nH]c2cc(C(F)(F)F)c(N3CCOCC3)cc2n(CP(=O)(O)O)c1=O` gave an activity change, negative = inhibition of -17.9%.

In the case of `Cc1ccc2c(c1)c1c3n2CCN(C(=O)CCl)C3CCC1` (centres undefined), the Potency was active: 11.2 µM.
In the case of `CCS(=O)(=O)c1ccc2oc(Nc3ccc(C(C)C)cc3)nc2c1`, the Potency was active: 7.08 µM.
With `CCOC(=O)[C@]12CCC=C1N(Cc1ccc3c(c1)OCO3)C(=O)[C@H](CC(=O)NCCc1ccccc1OC)C2` the Potency was active: 39.8 µM.
For `COC(=O)c1ccc(OC(=O)/C=C/c2ccc(Br)o2)cc1`, the Potency was active: 11.2 µM.
For `COc1cccc(CC(=O)N2CCC3(CC2)NC(=O)N(c2cccc(F)c2)N3)c1`, the Potency was active: 5.01 µM.
With `Cc1ccc(-n2c(O)c(C=Nc3ccccc3-c3n[nH]c(=S)[nH]c3=O)c3ccccc3c2=O)c(C)c1` the Potency was active: 15.8 µM.
With `O=C(N[C@@H]1CN(Cc2ccc(F)cc2)C[C@H]1CO)c1ccccc1` the Potency was active: 12.6 µM.
With `CCCCCCSc1ccc([C@@H]2[C@@H]3C(=O)N(CC)C(=O)[C@@H]3[C@]3(C(=O)OC)CCCCN23)cc1OC` the Potency was active: 17.8 µM.
`C#CCOc1c(Br)cc(/C=C2/C(=O)ON=C2C)cc1OC` was tested, and the Potency was active: 5.01 µM.
`COc1cccc(NC(=O)NC[C@H]2O[C@@H](CO)[C@@H](O)[C@H]2N2CCN(c3ccccc3OC)CC2)c1` was tested, and the Potency was active: 17.8 µM.
For `c1ccc(Nc2nc(NCC3CCCO3)c3ccccc3n2)cc1` (centres undefined), the Potency was active: 44.7 µM.
In the case of `Fc1cccc(/C=N/Nc2ccc(Cl)c(Cl)c2)c1`, the Potency was active: 5.01 µM.
For `O=C(O)c1ccc2c(c1)CC(=O)N2Cc1ccc(F)cc1`, the Potency was active: 11.2 µM.
